Laboratory results from paper PMC4055689.
Results are given in words; binding and its absence hold for the method and conditions named. Binding seen in cells or lysates may run through a third protein. Some binding calls cover weakened binding; strength is not graded here. Tags and fused reporters may be left off the sequences shown.

By UniProt entry, the sequences of proteins in these tests, tags left out. Where a name states a change or a piece, a line headed by the entry shows the natural chain unless it says otherwise.
UniProt P14867: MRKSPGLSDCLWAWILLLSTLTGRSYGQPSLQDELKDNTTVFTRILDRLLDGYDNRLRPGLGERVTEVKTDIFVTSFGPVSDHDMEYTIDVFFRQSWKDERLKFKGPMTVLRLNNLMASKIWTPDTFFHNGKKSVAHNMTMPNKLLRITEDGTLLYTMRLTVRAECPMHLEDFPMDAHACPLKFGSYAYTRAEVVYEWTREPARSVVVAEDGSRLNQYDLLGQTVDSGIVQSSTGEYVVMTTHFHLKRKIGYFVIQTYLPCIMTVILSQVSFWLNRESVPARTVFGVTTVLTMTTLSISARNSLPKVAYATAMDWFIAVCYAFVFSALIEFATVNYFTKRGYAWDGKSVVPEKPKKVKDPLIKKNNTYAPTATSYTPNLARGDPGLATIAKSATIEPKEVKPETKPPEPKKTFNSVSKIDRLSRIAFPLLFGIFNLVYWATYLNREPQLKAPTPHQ

Target: T1, ASIC1a with HA tag (UniProt P78348)
T1 sequence: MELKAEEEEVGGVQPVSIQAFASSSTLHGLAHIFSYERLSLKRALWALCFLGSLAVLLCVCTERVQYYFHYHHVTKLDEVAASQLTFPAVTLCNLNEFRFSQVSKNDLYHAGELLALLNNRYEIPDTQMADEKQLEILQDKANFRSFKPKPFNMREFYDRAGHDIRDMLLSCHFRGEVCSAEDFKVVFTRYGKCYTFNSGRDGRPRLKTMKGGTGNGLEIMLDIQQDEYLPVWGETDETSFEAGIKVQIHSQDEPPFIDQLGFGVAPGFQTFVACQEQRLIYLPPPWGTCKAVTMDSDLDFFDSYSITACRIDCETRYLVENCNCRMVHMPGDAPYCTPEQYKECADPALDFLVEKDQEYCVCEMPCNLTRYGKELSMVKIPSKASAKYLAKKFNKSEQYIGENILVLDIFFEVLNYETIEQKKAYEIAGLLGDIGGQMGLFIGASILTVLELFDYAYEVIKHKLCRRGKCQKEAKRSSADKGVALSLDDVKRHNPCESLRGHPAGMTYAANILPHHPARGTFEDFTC
Test: co-IP; HEK293 cells transiently co-transfected with HA-ASIC1a and GABAAR α1β2, lysed 36 h after transfection in 1% Triton X-100, 50 mM Tris pH 7.5; precipitated with anti-HA beads, blotted with anti-GABAAR β2

GABAA receptor α1β2 (GABAA receptor subunits α1 and β2) (from UniProt P14867 28-456; P47870 26-512) (complex)
binding: binds
